# From the supplement of paper PMC6411743
# By UniProt entry, the sequences of proteins in these tests, tags left out. Where a name states a change or a piece, a line headed by the entry shows the natural chain unless it says otherwise.
# UniProt O95298, whole entry: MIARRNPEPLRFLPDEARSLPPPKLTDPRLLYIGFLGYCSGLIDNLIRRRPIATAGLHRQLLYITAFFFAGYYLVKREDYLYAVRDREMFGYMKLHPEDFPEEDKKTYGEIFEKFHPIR
# UniProt O94986: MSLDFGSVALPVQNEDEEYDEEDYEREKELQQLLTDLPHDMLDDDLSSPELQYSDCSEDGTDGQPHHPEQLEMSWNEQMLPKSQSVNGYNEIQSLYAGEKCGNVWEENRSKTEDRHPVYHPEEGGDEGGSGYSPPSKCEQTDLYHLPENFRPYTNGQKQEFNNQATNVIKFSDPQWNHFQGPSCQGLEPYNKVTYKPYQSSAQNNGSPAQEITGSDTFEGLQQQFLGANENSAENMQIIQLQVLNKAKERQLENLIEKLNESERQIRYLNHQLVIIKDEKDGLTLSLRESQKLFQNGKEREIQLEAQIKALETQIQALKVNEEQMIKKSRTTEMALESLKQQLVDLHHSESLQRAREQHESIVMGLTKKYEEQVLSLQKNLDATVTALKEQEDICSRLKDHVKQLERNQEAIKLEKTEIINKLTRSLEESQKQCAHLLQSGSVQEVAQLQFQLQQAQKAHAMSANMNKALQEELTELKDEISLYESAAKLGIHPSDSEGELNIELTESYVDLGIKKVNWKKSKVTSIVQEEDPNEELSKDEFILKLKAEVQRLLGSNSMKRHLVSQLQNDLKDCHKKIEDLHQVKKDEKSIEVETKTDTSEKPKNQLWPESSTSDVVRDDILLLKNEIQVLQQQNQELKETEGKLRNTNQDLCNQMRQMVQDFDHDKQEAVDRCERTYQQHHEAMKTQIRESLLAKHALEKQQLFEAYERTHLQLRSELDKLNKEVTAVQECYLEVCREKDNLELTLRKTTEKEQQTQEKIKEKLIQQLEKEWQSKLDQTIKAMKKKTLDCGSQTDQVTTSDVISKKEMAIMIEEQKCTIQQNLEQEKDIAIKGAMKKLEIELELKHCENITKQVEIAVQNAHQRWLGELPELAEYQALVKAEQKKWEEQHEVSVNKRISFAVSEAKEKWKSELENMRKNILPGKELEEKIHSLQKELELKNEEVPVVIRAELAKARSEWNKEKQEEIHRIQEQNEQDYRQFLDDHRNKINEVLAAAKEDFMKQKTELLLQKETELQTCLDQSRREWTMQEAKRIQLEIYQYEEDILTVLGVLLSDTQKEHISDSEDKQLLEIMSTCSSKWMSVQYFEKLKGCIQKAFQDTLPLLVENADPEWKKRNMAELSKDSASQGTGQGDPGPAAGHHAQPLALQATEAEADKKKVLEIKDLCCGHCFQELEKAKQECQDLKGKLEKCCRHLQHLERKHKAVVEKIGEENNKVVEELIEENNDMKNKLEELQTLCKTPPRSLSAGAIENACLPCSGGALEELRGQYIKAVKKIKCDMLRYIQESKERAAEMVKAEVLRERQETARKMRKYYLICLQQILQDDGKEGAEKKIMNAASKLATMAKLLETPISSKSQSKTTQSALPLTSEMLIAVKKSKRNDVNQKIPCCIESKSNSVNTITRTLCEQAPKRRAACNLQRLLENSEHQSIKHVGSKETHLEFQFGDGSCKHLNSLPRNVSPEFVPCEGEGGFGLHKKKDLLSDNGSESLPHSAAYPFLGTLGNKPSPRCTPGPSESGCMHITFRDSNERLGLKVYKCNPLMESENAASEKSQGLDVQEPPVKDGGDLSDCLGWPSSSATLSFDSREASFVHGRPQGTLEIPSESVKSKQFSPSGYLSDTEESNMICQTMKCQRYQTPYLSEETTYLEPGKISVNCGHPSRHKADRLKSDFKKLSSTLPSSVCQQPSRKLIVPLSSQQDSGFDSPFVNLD
# UniProt O75146: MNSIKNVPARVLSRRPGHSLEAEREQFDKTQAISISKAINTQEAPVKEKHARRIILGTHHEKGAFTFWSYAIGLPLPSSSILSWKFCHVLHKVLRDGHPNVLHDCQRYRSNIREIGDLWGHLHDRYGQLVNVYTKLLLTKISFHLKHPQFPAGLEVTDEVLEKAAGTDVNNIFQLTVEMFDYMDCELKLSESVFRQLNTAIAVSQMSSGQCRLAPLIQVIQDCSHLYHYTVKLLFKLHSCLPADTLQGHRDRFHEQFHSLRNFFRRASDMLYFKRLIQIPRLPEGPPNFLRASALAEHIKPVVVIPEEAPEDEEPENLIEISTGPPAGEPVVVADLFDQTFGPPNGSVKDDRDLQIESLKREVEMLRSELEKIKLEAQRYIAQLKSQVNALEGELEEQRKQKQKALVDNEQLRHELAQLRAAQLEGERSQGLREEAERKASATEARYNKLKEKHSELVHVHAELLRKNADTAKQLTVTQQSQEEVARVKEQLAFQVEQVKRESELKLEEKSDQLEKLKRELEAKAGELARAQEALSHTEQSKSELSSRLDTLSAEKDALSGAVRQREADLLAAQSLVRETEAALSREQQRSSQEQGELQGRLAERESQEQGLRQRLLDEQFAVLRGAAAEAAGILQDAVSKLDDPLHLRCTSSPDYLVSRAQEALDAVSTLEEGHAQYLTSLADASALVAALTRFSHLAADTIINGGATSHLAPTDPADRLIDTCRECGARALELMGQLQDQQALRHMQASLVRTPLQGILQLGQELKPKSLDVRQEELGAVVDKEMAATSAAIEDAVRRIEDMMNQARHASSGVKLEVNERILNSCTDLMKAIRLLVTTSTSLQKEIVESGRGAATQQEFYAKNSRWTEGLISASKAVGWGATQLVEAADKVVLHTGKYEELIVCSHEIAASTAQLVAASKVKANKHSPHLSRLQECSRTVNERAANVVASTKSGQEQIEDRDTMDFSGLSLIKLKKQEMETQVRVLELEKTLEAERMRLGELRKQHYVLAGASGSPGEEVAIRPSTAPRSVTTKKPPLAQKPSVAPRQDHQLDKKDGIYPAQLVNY
# UniProt O75330: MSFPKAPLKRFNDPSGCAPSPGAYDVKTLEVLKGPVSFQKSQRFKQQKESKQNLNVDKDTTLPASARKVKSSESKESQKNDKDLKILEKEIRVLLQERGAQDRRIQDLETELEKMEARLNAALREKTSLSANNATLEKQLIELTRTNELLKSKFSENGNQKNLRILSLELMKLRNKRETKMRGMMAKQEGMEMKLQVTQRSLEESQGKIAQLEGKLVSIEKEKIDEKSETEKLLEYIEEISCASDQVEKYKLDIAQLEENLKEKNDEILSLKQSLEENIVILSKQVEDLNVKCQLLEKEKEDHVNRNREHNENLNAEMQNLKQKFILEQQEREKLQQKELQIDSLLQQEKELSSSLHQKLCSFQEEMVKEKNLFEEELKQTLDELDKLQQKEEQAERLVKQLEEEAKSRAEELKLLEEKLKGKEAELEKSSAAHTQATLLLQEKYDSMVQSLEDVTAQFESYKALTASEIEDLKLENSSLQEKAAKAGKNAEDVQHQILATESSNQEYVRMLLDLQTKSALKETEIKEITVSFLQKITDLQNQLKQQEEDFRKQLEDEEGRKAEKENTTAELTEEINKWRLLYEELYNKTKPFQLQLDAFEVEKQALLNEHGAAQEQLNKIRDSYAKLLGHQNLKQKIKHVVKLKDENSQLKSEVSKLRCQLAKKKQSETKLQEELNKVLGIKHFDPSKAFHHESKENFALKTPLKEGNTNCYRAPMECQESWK
# UniProt O76080: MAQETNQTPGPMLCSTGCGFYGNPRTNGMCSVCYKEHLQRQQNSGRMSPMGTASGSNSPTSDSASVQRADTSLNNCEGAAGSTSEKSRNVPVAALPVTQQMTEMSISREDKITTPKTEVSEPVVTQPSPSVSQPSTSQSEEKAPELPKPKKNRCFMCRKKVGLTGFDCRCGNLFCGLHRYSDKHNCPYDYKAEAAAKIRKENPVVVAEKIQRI
# UniProt O60496: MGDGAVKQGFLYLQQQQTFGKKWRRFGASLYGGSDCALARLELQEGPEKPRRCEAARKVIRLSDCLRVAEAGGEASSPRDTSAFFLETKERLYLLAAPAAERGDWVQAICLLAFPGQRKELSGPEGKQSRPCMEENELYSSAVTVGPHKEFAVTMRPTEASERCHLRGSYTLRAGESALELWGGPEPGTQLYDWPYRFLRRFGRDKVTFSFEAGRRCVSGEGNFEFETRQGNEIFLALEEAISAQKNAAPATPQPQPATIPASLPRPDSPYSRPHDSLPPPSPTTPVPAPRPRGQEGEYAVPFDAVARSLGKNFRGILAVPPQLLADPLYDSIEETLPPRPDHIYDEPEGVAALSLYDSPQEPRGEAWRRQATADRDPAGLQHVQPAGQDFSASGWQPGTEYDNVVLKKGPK
# UniProt O75446: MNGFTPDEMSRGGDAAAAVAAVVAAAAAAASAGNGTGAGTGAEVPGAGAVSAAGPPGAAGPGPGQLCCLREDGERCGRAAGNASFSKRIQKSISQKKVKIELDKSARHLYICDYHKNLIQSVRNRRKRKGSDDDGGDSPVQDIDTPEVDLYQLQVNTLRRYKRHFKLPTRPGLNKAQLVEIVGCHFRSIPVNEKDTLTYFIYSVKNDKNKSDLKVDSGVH
# UniProt O76024: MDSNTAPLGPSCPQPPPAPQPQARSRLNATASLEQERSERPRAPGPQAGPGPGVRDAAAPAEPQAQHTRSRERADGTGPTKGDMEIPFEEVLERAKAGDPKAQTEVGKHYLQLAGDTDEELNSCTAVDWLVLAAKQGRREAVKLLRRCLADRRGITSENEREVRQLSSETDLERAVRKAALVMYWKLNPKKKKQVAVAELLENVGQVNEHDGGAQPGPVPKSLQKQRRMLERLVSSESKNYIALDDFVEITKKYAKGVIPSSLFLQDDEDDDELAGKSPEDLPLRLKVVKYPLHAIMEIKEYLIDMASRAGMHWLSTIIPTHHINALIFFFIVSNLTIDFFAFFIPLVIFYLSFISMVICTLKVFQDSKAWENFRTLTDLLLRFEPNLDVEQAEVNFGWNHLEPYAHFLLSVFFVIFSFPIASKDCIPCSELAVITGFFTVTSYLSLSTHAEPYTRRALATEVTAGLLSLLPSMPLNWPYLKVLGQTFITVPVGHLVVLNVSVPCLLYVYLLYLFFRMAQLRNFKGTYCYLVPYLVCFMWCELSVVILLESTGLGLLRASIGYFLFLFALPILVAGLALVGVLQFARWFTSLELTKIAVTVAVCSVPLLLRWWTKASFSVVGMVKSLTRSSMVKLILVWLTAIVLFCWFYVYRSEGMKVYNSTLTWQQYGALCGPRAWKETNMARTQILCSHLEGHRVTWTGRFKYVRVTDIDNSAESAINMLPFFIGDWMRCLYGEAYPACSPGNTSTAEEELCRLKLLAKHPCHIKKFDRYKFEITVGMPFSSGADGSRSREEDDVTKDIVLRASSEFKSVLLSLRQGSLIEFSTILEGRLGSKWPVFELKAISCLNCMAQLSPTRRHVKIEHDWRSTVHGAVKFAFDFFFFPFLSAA
# UniProt O75323: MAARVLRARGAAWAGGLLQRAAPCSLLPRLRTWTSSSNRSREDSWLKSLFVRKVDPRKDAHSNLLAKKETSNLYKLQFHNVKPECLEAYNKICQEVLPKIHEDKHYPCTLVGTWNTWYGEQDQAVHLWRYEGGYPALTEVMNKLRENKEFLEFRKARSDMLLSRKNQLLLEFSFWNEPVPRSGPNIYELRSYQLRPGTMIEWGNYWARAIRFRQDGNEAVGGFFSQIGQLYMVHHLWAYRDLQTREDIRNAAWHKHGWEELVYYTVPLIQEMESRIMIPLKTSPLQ
# UniProt O94967: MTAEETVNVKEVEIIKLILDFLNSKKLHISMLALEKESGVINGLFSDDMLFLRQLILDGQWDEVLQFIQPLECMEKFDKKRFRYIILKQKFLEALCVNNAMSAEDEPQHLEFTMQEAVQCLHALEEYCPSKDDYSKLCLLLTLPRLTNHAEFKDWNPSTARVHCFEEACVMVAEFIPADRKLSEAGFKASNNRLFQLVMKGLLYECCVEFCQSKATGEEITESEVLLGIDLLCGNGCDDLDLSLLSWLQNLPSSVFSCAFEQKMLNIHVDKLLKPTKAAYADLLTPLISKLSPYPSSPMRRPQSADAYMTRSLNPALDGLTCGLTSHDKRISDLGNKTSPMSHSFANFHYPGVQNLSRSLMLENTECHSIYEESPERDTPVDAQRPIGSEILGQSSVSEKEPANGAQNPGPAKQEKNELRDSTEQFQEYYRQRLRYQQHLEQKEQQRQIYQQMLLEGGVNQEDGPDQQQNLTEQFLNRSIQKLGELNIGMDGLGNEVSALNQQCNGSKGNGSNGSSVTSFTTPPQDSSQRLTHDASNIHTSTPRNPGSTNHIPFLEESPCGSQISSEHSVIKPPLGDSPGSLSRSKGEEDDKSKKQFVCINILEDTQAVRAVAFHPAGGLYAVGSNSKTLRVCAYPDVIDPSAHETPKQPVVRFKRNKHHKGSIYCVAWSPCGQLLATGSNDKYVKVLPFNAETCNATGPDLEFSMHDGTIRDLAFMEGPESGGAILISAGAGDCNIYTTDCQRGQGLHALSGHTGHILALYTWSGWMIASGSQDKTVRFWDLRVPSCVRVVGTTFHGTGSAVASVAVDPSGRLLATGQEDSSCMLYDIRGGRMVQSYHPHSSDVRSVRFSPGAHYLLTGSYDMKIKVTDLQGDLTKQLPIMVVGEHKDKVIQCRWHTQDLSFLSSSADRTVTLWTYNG
# ± gives the standard deviation of the averaged measurements. Only a part is listed here, and it is no random draw. Small differences around the control level are noise.
# Compound: Nc1ncnc2c1ncn2[C@@H]1O[C@H](COP(=O)(O)OP(=O)(O)OP(=O)(O)O)[C@@H](O)[C@H]1O [adenosine triphosphate]
# Test: NP40-soluble protein abundance relative to vehicle (solubility fold change) (ratio); higher = more soluble protein in presence of ATP
# How it was run: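 Jurkat crude lysate prepared with a Dounce homogeniser was treated at eight concentrations spanning 0.1 to 10 mM, 10 min at room temperature then 3 min at 37 °C. Solubilisation with 0.8% NP40 and benzonase and ultracentrifugation preceded TMT labelling of the supernatant for LC-MS/MS. Fold change against the detergent-processed vehicle was determined per replicate from vsn-normalised intensities, across three independent experiments.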
target,measurement,setting,value
UniProt O95298 and related entries,NP40-soluble protein abundance,concentration: 0.1mM,0.908 ± 0.15
same,NP40-soluble protein abundance,concentration: 0.5mM,0.904 ± 0.2
FRYL (UniProt O94915),NP40-soluble protein abundance,concentration: 0.1mM,1.04 ± 0.06
same,NP40-soluble protein abundance,concentration: 0.5mM,1.08 ± 0.068
LYPLA2 (UniProt O95372),NP40-soluble protein abundance,concentration: 0.1mM,0.9747 ± 0.006
same,NP40-soluble protein abundance,concentration: 0.5mM,0.935 ± 0.058
UniProt O94855 and related entries,NP40-soluble protein abundance,concentration: 0.1mM,1.01 ± 0.089
same,NP40-soluble protein abundance,concentration: 0.5mM,1 ± 0.032
UniProt O94986 and related entries,NP40-soluble protein abundance,concentration: 0.1mM,0.9994 ± 0.004
same,NP40-soluble protein abundance,concentration: 0.5mM,0.921 ± 0.1
HIP1R (UniProt O75146),NP40-soluble protein abundance,concentration: 0.1mM,1.02 ± 0.018
same,NP40-soluble protein abundance,concentration: 0.5mM,1.02 ± 0.02
UniProt O60888 and related entries,NP40-soluble protein abundance,concentration: 0.1mM,0.85 ± 0.092
same,NP40-soluble protein abundance,concentration: 0.5mM,0.888 ± 0.16
UniProt O75330 and related entries,NP40-soluble protein abundance,concentration: 0.1mM,0.959 ± 0.015
same,NP40-soluble protein abundance,concentration: 0.5mM,0.941 ± 0.023
UniProt O95749 and related entries,NP40-soluble protein abundance,concentration: 0.1mM,1.01 ± 0.025
same,NP40-soluble protein abundance,concentration: 0.5mM,0.974 ± 0.039
UniProt O75182 and related entries,NP40-soluble protein abundance,concentration: 0.1mM,1.07 ± 0.091
same,NP40-soluble protein abundance,concentration: 0.5mM,1.02 ± 0.071
RNASEH1 (UniProt O60930),NP40-soluble protein abundance,concentration: 0.1mM,0.977 ± 0.051
same,NP40-soluble protein abundance,concentration: 0.5mM,1.03 ± 0.11
FAM20B (UniProt O75063),NP40-soluble protein abundance,concentration: 0.1mM,1.06 ± 0.039
same,NP40-soluble protein abundance,concentration: 0.5mM,0.988 ± 0.029
ETHE1 (UniProt O95571),NP40-soluble protein abundance,concentration: 0.1mM,1.01 ± 0.043
same,NP40-soluble protein abundance,concentration: 0.5mM,1.03 ± 0.071
UniProt O75530,NP40-soluble protein abundance,concentration: 0.1mM,1.05 ± 0.054
same,NP40-soluble protein abundance,concentration: 0.5mM,1.145 ± 0.0061
ZFAND5 (UniProt O76080),NP40-soluble protein abundance,concentration: 0.1mM,0.833 ± 0.091
same,NP40-soluble protein abundance,concentration: 0.5mM,0.848 ± 0.099
UniProt O60711 and related entries,NP40-soluble protein abundance,concentration: 0.1mM,1.05 ± 0.071
same,NP40-soluble protein abundance,concentration: 0.5mM,1.05 ± 0.078
TOX (UniProt O94900),NP40-soluble protein abundance,concentration: 0.1mM,0.922 ± 0.053
same,NP40-soluble protein abundance,concentration: 0.5mM,0.915 ± 0.1
UniProt O95235 and related entries,NP40-soluble protein abundance,concentration: 0.1mM,1.05 ± 0.031
same,NP40-soluble protein abundance,concentration: 0.5mM,1.16 ± 0.057
UniProt O94985-2,NP40-soluble protein abundance,concentration: 0.1mM,0.991 ± 0.054
same,NP40-soluble protein abundance,concentration: 0.5mM,0.953 ± 0.05
ZNF217 (UniProt O75362),NP40-soluble protein abundance,concentration: 0.1mM,0.968 ± 0.05
same,NP40-soluble protein abundance,concentration: 0.5mM,0.997 ± 0.094
ZBTB7A (UniProt O95365),NP40-soluble protein abundance,concentration: 0.1mM,0.973 ± 0.059
same,NP40-soluble protein abundance,concentration: 0.5mM,0.999 ± 0.018
SMNDC1 (UniProt O75940),NP40-soluble protein abundance,concentration: 0.1mM,1.02 ± 0.044
same,NP40-soluble protein abundance,concentration: 0.5mM,1.12 ± 0.059
UniProt O95782 and related entries,NP40-soluble protein abundance,concentration: 0.1mM,1.03 ± 0.037
same,NP40-soluble protein abundance,concentration: 0.5mM,1.06 ± 0.031
UniProt O75947,NP40-soluble protein abundance,concentration: 0.1mM,0.901 ± 0.084
same,NP40-soluble protein abundance,concentration: 0.5mM,0.878 ± 0.11
UniProt O95793 and related entries,NP40-soluble protein abundance,concentration: 0.1mM,0.983 ± 0.043
same,NP40-soluble protein abundance,concentration: 0.5mM,0.991 ± 0.029
RAB3D (UniProt O95716),NP40-soluble protein abundance,concentration: 0.1mM,1.02 ± 0.14
same,NP40-soluble protein abundance,concentration: 0.5mM,1.01 ± 0.068
SNX4 (UniProt O95219),NP40-soluble protein abundance,concentration: 0.1mM,0.998 ± 0.043
same,NP40-soluble protein abundance,concentration: 0.5mM,0.951 ± 0.15
WDR1 (UniProt O75083),NP40-soluble protein abundance,concentration: 0.1mM,1.03 ± 0.066
same,NP40-soluble protein abundance,concentration: 0.5mM,1.02 ± 0.065
SMPD2 (UniProt O60906),NP40-soluble protein abundance,concentration: 0.1mM,1.04 ± 0.18
same,NP40-soluble protein abundance,concentration: 0.5mM,0.973 ± 0.11
MAFK (UniProt O60675),NP40-soluble protein abundance,concentration: 0.1mM,0.996 ± 0.098
same,NP40-soluble protein abundance,concentration: 0.5mM,1 ± 0.11
KATNA1 (UniProt O75449),NP40-soluble protein abundance,concentration: 0.1mM,0.991 ± 0.032
same,NP40-soluble protein abundance,concentration: 0.5mM,1.02 ± 0.051
UniProt O75934,NP40-soluble protein abundance,concentration: 0.1mM,0.979 ± 0.089
same,NP40-soluble protein abundance,concentration: 0.5mM,0.939 ± 0.073
DDX58 (UniProt O95786),NP40-soluble protein abundance,concentration: 0.1mM,1.08 ± 0.076
same,NP40-soluble protein abundance,concentration: 0.5mM,1.07 ± 0.082
same,NP40-soluble protein abundance,concentration: 1mM,1.06 ± 0.097
same,NP40-soluble protein abundance,concentration: 2mM,1.03 ± 0.063
same,NP40-soluble protein abundance,concentration: 4mM,1 ± 0.05
same,NP40-soluble protein abundance,concentration: 6mM,0.978 ± 0.078
same,NP40-soluble protein abundance,concentration: 8mM,1.03 ± 0.056
same,NP40-soluble protein abundance,concentration: 10mM,1.01 ± 0.055
DOK2 (UniProt O60496),NP40-soluble protein abundance,concentration: 0.1mM,1.02 ± 0.02
same,NP40-soluble protein abundance,concentration: 0.5mM,1.01 ± 0.028
UniProt O75081 and related entries,NP40-soluble protein abundance,concentration: 0.1mM,0.922 ± 0.042
same,NP40-soluble protein abundance,concentration: 0.5mM,0.914 ± 0.13
same,NP40-soluble protein abundance,concentration: 1mM,0.943 ± 0.039
same,NP40-soluble protein abundance,concentration: 2mM,0.9218 ± 0.0052
same,NP40-soluble protein abundance,concentration: 4mM,0.907 ± 0.052
same,NP40-soluble protein abundance,concentration: 6mM,0.888 ± 0.14
same,NP40-soluble protein abundance,concentration: 8mM,0.888 ± 0.082
same,NP40-soluble protein abundance,concentration: 10mM,0.97 ± 0.089
UniProt O95294 and related entries,NP40-soluble protein abundance,concentration: 0.1mM,0.96 ± 0.046
same,NP40-soluble protein abundance,concentration: 0.5mM,1.01 ± 0.061
same,NP40-soluble protein abundance,concentration: 1mM,0.95 ± 0.03
same,NP40-soluble protein abundance,concentration: 2mM,0.96 ± 0.069
same,NP40-soluble protein abundance,concentration: 4mM,1.01 ± 0.058
same,NP40-soluble protein abundance,concentration: 6mM,0.994 ± 0.11
same,NP40-soluble protein abundance,concentration: 8mM,0.962 ± 0.13
same,NP40-soluble protein abundance,concentration: 10mM,0.965 ± 0.15
UniProt O75400 and related entries,NP40-soluble protein abundance,concentration: 0.1mM,1.04 ± 0.064
same,NP40-soluble protein abundance,concentration: 0.5mM,1.27 ± 0.099
same,NP40-soluble protein abundance,concentration: 1mM,1.35 ± 0.075
same,NP40-soluble protein abundance,concentration: 2mM,1.44 ± 0.086
same,NP40-soluble protein abundance,concentration: 4mM,1.65 ± 0.097
same,NP40-soluble protein abundance,concentration: 6mM,2.14 ± 0.13
same,NP40-soluble protein abundance,concentration: 8mM,2.39 ± 0.13
same,NP40-soluble protein abundance,concentration: 10mM,2.62 ± 0.2
SAP30 (UniProt O75446),NP40-soluble protein abundance,concentration: 0.1mM,0.868 ± 0.069
same,NP40-soluble protein abundance,concentration: 0.5mM,0.932 ± 0.19
same,NP40-soluble protein abundance,concentration: 1mM,0.93 ± 0.092
same,NP40-soluble protein abundance,concentration: 2mM,0.952 ± 0.092
same,NP40-soluble protein abundance,concentration: 4mM,0.907 ± 0.073
same,NP40-soluble protein abundance,concentration: 6mM,0.971 ± 0.15
same,NP40-soluble protein abundance,concentration: 8mM,0.96 ± 0.044
same,NP40-soluble protein abundance,concentration: 10mM,0.915 ± 0.13
UniProt O94925 and related entries,NP40-soluble protein abundance,concentration: 0.1mM,1.02 ± 0.034
same,NP40-soluble protein abundance,concentration: 0.5mM,1.04 ± 0.074
same,NP40-soluble protein abundance,concentration: 1mM,1.02 ± 0.071
same,NP40-soluble protein abundance,concentration: 2mM,0.968 ± 0.035
same,NP40-soluble protein abundance,concentration: 4mM,0.981 ± 0.078
same,NP40-soluble protein abundance,concentration: 6mM,0.944 ± 0.05
same,NP40-soluble protein abundance,concentration: 8mM,0.978 ± 0.061
same,NP40-soluble protein abundance,concentration: 10mM,0.947 ± 0.039
HSPA4L (UniProt O95757),NP40-soluble protein abundance,concentration: 0.1mM,1 ± 0.038
same,NP40-soluble protein abundance,concentration: 0.5mM,1.02 ± 0.057
same,NP40-soluble protein abundance,concentration: 1mM,0.964 ± 0.015
same,NP40-soluble protein abundance,concentration: 2mM,0.9785 ± 0.0092
same,NP40-soluble protein abundance,concentration: 4mM,0.951 ± 0.018
same,NP40-soluble protein abundance,concentration: 6mM,0.987 ± 0.018
same,NP40-soluble protein abundance,concentration: 8mM,0.937 ± 0.036
same,NP40-soluble protein abundance,concentration: 10mM,0.949 ± 0.019
IPO7 (UniProt O95373),NP40-soluble protein abundance,concentration: 0.1mM,0.928 ± 0.015
same,NP40-soluble protein abundance,concentration: 0.5mM,0.912 ± 0.065
ATRN (UniProt O75882),NP40-soluble protein abundance,concentration: 0.1mM,0.941 ± 0.07
same,NP40-soluble protein abundance,concentration: 0.5mM,0.914 ± 0.056
same,NP40-soluble protein abundance,concentration: 1mM,0.928 ± 0.039
same,NP40-soluble protein abundance,concentration: 2mM,0.947 ± 0.048
same,NP40-soluble protein abundance,concentration: 4mM,0.975 ± 0.015
same,NP40-soluble protein abundance,concentration: 6mM,0.959 ± 0.095
same,NP40-soluble protein abundance,concentration: 8mM,0.896 ± 0.01
same,NP40-soluble protein abundance,concentration: 10mM,0.899 ± 0.057
UniProt O75306 and related entries,NP40-soluble protein abundance,concentration: 0.1mM,1.05 ± 0.076
same,NP40-soluble protein abundance,concentration: 0.5mM,1.04 ± 0.029
CRTAP (UniProt O75718),NP40-soluble protein abundance,concentration: 0.1mM,0.998 ± 0.039
same,NP40-soluble protein abundance,concentration: 0.5mM,1.09 ± 0.026
same,NP40-soluble protein abundance,concentration: 1mM,1.11 ± 0.024
same,NP40-soluble protein abundance,concentration: 2mM,1.14 ± 0.032
same,NP40-soluble protein abundance,concentration: 4mM,1.16 ± 0.024
same,NP40-soluble protein abundance,concentration: 6mM,1.19 ± 0.034
same,NP40-soluble protein abundance,concentration: 8mM,1.19 ± 0.033
same,NP40-soluble protein abundance,concentration: 10mM,1.2 ± 0.052
WFS1 (UniProt O76024),NP40-soluble protein abundance,concentration: 0.1mM,1.11 ± 0.028
same,NP40-soluble protein abundance,concentration: 0.5mM,0.948 ± 0.064
UniProt O75323,NP40-soluble protein abundance,concentration: 0.1mM,1.03 ± 0.057
same,NP40-soluble protein abundance,concentration: 0.5mM,1.03 ± 0.044
UniProt O94967 and related entries,NP40-soluble protein abundance,concentration: 0.1mM,0.976 ± 0.076
same,NP40-soluble protein abundance,concentration: 0.5mM,1.03 ± 0.011
IPO13 (UniProt O94829),NP40-soluble protein abundance,concentration: 0.1mM,1.02 ± 0.17
same,NP40-soluble protein abundance,concentration: 0.5mM,0.953 ± 0.11
UniProt O95379-3|O95379-4,NP40-soluble protein abundance,concentration: 0.1mM,0.869 ± 0.035
same,NP40-soluble protein abundance,concentration: 0.5mM,0.89 ± 0.057
same,NP40-soluble protein abundance,concentration: 1mM,0.855 ± 0.036
same,NP40-soluble protein abundance,concentration: 2mM,0.93 ± 0.019
same,NP40-soluble protein abundance,concentration: 4mM,0.885 ± 0.032
same,NP40-soluble protein abundance,concentration: 6mM,0.9504 ± 0.0062
same,NP40-soluble protein abundance,concentration: 8mM,0.932 ± 0.035
same,NP40-soluble protein abundance,concentration: 10mM,0.85 ± 0.1

# 2 entries from above, reformatted:
target	measurement	setting	value
ETHE1 (UniProt O95571)	NP40-soluble protein abundance	concentration: 0.5mM	1.03 ± 0.071
UniProt O75530	NP40-soluble protein abundance	concentration: 0.1mM	1.05 ± 0.054

# Some of the entries so far, as tab-separated lines.
target	measurement	setting	value
SAP30 (UniProt O75446)	NP40-soluble protein abundance	concentration: 1mM	0.93 ± 0.092
same	NP40-soluble protein abundance	concentration: 2mM	0.952 ± 0.092
same	NP40-soluble protein abundance	concentration: 4mM	0.907 ± 0.073
same	NP40-soluble protein abundance	concentration: 6mM	0.971 ± 0.15
same	NP40-soluble protein abundance	concentration: 8mM	0.96 ± 0.044

# Some of the entries above, reformatted:
target	measurement	setting	value
UniProt O94967 and related entries	NP40-soluble protein abundance	concentration: 0.1mM	0.976 ± 0.076
same	NP40-soluble protein abundance	concentration: 0.5mM	1.03 ± 0.011
